In the supplement of paper PMC5355238:
Counter-ions that a name gives are not always drawn. This is one part of the list. Most entries show no effect beyond the scatter of the controls.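 Reh is a human leukemia cell line; the read-out is the median γH2AX antibody signal in S-phase cells by flow cytometry, with the score counting standard deviations from the median difference of each paired set of plates. Scores above 2.5 were called candidate hits, while scores below -2 mark compounds that lowered the MK1775-induced damage.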

system: Reh; experiment: Z' of S-phase gammaH2AX difference (drug + MK1775 minus drug alone) (Z-score); higher = stronger synergistic S-phase DNA damage with MK1775; details: MK1775 concentration 400 nM; first compound 10 µM; 4 h

SMILES	Z' of S-phase gammaH2AX difference (Z-score)
O=c1[nH]c2cc(Cl)ccc2c(O)c1-c1cccc(Oc2ccccc2)c1 + C=CCn1c(=O)c2cnc(Nc3ccc(N4CCN(C)CC4)cc3)nc2n1-c1cccc(C(C)(C)O)n1 [MK1775]	inactive: -0.308
C=CCN1CCc2c(cc(O)c(O)c2Cl)C(c2ccccc2)C1 (stereo unspecified) [(?)-Chloro-APB hydrobromide] + C=CCn1c(=O)c2cnc(Nc3ccc(N4CCN(C)CC4)cc3)nc2n1-c1cccc(C(C)(C)O)n1 [MK1775]	inactive: 0.19
O=C(CCCN1CCC(O)(c2ccc(Cl)cc2)CC1)c1ccc(F)cc1 [Haloperidol] + C=CCn1c(=O)c2cnc(Nc3ccc(N4CCN(C)CC4)cc3)nc2n1-c1cccc(C(C)(C)O)n1 [MK1775]	inactive: 0.0704
CN1CCC(CNc2ccc3ncc(-c4cccc(OC(F)(F)F)c4)n3n2)CC1 [SGI-1776 free base] + C=CCn1c(=O)c2cnc(Nc3ccc(N4CCN(C)CC4)cc3)nc2n1-c1cccc(C(C)(C)O)n1 [MK1775]	inactive: -0.935
N=C(N)SCCc1ccc(CCSC(=N)N)cc1 [1,4-PBIT dihydrobromide] + C=CCn1c(=O)c2cnc(Nc3ccc(N4CCN(C)CC4)cc3)nc2n1-c1cccc(C(C)(C)O)n1 [MK1775]	inactive: -0.907
CC(N)(Cc1ccc(O)cc1)C(=O)O (racemic) [DL-alpha-Methyl-p-tyrosine] + C=CCn1c(=O)c2cnc(Nc3ccc(N4CCN(C)CC4)cc3)nc2n1-c1cccc(C(C)(C)O)n1 [MK1775]	inactive: -1.05
COc1c(C)c2c(c(O)c1C/C=C(\C)CCC(=O)OCCN1CCOCC1)C(=O)OC2 [Mycophenolate mofetil (CellCept)] + C=CCn1c(=O)c2cnc(Nc3ccc(N4CCN(C)CC4)cc3)nc2n1-c1cccc(C(C)(C)O)n1 [MK1775]	inactive: 1.66
CN1C(C(=O)Nc2ccccn2)=C(O)c2ccccc2S1(=O)=O [Piroxicam] + C=CCn1c(=O)c2cnc(Nc3ccc(N4CCN(C)CC4)cc3)nc2n1-c1cccc(C(C)(C)O)n1 [MK1775]	inactive: -0.471
NCCS [Cysteamine hydrochloride] + C=CCn1c(=O)c2cnc(Nc3ccc(N4CCN(C)CC4)cc3)nc2n1-c1cccc(C(C)(C)O)n1 [MK1775]	inactive: -0.65
COCCOC(=O)C1=C(C)NC(C)=C(C(=O)OC(C)C)C1c1cccc([N+](=O)[O-])c1 (stereo unspecified) [Nimodipine] + C=CCn1c(=O)c2cnc(Nc3ccc(N4CCN(C)CC4)cc3)nc2n1-c1cccc(C(C)(C)O)n1 [MK1775]	inactive: 0.422
COC(=O)[C@@H](N)Cc1ccc(O)c(O)c1 [L-3,4-Dihydroxyphenylalanine methyl ester hydrochloride] + C=CCn1c(=O)c2cnc(Nc3ccc(N4CCN(C)CC4)cc3)nc2n1-c1cccc(C(C)(C)O)n1 [MK1775]	inactive: 0.668
COc1ccc2c(c1)c(CC(=O)O)c(C)n2Cc1ccc(Cl)cc1 [1-(4-Chlorobenzyl)-5-methoxy-2-methylindole-3-acetic acid] + C=CCn1c(=O)c2cnc(Nc3ccc(N4CCN(C)CC4)cc3)nc2n1-c1cccc(C(C)(C)O)n1 [MK1775]	inactive: 0.0334
CNCc1ccc(-c2[nH]c3cc(F)cc4c3c2CCNC4=O)cc1 + C=CCn1c(=O)c2cnc(Nc3ccc(N4CCN(C)CC4)cc3)nc2n1-c1cccc(C(C)(C)O)n1 [MK1775]	inactive: -0.502
CCNC(=O)c1noc(-c2cc(C(C)C)c(O)cc2O)c1-c1ccc(CN2CCOCC2)cc1 + C=CCn1c(=O)c2cnc(Nc3ccc(N4CCN(C)CC4)cc3)nc2n1-c1cccc(C(C)(C)O)n1 [MK1775]	inactive: -0.0717
Cc1cnc(-c2cnc(NCCNc3ccc(C#N)cn3)nc2-c2ccc(Cl)cc2Cl)[nH]1 + C=CCn1c(=O)c2cnc(Nc3ccc(N4CCN(C)CC4)cc3)nc2n1-c1cccc(C(C)(C)O)n1 [MK1775]	inactive: -0.333
COc1cc(/C=C(\C#N)C(=O)c2ccc(O)c(O)c2)cc(I)c1O [I-OMe-Tyrphostin AG 538] + C=CCn1c(=O)c2cnc(Nc3ccc(N4CCN(C)CC4)cc3)nc2n1-c1cccc(C(C)(C)O)n1 [MK1775]	inactive: 0.408
CC(C)Oc1cc(Nc2nc(N[C@@H](C)c3ccc(F)cn3)ncc2Cl)n[nH]1 + C=CCn1c(=O)c2cnc(Nc3ccc(N4CCN(C)CC4)cc3)nc2n1-c1cccc(C(C)(C)O)n1 [MK1775]	inactive: -1.06
N[C@@H](Cc1c[nH]cn1)C(=O)O [L-Histidine hydrochloride] + C=CCn1c(=O)c2cnc(Nc3ccc(N4CCN(C)CC4)cc3)nc2n1-c1cccc(C(C)(C)O)n1 [MK1775]	inactive: 0.921

Random excerpt: 2 records from the list, in no set order.
SMILES	Z' of S-phase gammaH2AX difference (Z-score)
N=C(N)SCCc1ccc(CCSC(=N)N)cc1 [1,4-PBIT dihydrobromide] + C=CCn1c(=O)c2cnc(Nc3ccc(N4CCN(C)CC4)cc3)nc2n1-c1cccc(C(C)(C)O)n1 [MK1775]	inactive: -0.907
Cc1cnc(-c2cnc(NCCNc3ccc(C#N)cn3)nc2-c2ccc(Cl)cc2Cl)[nH]1 + C=CCn1c(=O)c2cnc(Nc3ccc(N4CCN(C)CC4)cc3)nc2n1-c1cccc(C(C)(C)O)n1 [MK1775]	inactive: -0.333

More records

SMILES	Z' of S-phase gammaH2AX difference (Z-score)
CC(C[N+](C)(C)C)OC(N)=O (stereo unspecified) [Bethanechol chloride] + C=CCn1c(=O)c2cnc(Nc3ccc(N4CCN(C)CC4)cc3)nc2n1-c1cccc(C(C)(C)O)n1 [MK1775]	inactive: 1.1
CC(=N)NCc1cccc(CN)c1 [1400W dihydrochloride] + C=CCn1c(=O)c2cnc(Nc3ccc(N4CCN(C)CC4)cc3)nc2n1-c1cccc(C(C)(C)O)n1 [MK1775]	inactive: 0.028
Cc1cn([C@H]2C[C@H](N=[N+]=[N-])[C@@H](CO)O2)c(=O)[nH]c1=O [3'-Azido-3'-deoxythymidine] + C=CCn1c(=O)c2cnc(Nc3ccc(N4CCN(C)CC4)cc3)nc2n1-c1cccc(C(C)(C)O)n1 [MK1775]	inactive: 0.548
COc1ccc([C@@H]2Sc3ccccc3N(CCN(C)C)C(=O)[C@@H]2OC(C)=O)cc1 [Diltiazem hydrochloride] + C=CCn1c(=O)c2cnc(Nc3ccc(N4CCN(C)CC4)cc3)nc2n1-c1cccc(C(C)(C)O)n1 [MK1775]	inactive: 0.109
O=C1Nc2ccc(I)cc2/C1=C/c1cc(Br)c(O)c(Br)c1 + C=CCn1c(=O)c2cnc(Nc3ccc(N4CCN(C)CC4)cc3)nc2n1-c1cccc(C(C)(C)O)n1 [MK1775]	inactive: 1.79
Cc1ccccc1N1CCN(S(=O)(=O)C[C@]23CC[C@H](CC2NC(=O)[C@@H](N)CCS(C)(=O)=O)C3(C)C)CC1 (stereo partly specified) + C=CCn1c(=O)c2cnc(Nc3ccc(N4CCN(C)CC4)cc3)nc2n1-c1cccc(C(C)(C)O)n1 [MK1775]	inactive: 0.109
O=C1N=C(O)NC1(c1ccccc1)c1ccccc1 [Phenytoin sodium] + C=CCn1c(=O)c2cnc(Nc3ccc(N4CCN(C)CC4)cc3)nc2n1-c1cccc(C(C)(C)O)n1 [MK1775]	inactive: -0.721
NCCC(=O)NCCc1c[nH]cn1 [Carcinine dihydrochloride] + C=CCn1c(=O)c2cnc(Nc3ccc(N4CCN(C)CC4)cc3)nc2n1-c1cccc(C(C)(C)O)n1 [MK1775]	inactive: -0.565
COc1cc2c(cc1OC)-c1c/c(=N\c3c(C)cc(C)cc3C)n(C)c(=O)n1CC2 [Trequinsin hydrochloride] + C=CCn1c(=O)c2cnc(Nc3ccc(N4CCN(C)CC4)cc3)nc2n1-c1cccc(C(C)(C)O)n1 [MK1775]	inactive: -0.282
Oc1nc(-c2ccc(C(F)(F)F)cc2)nc2c1CSCC2 + C=CCn1c(=O)c2cnc(Nc3ccc(N4CCN(C)CC4)cc3)nc2n1-c1cccc(C(C)(C)O)n1 [MK1775]	inactive: -0.0584
O=C1OC(=O)[C@H]2[C@@H]1[C@@H]1CC[C@H]2O1 [Norcantharidin] + C=CCn1c(=O)c2cnc(Nc3ccc(N4CCN(C)CC4)cc3)nc2n1-c1cccc(C(C)(C)O)n1 [MK1775]	inactive: -0.616
O=c1[nH]c2cc(Cl)c(Cl)cc2[nH]c1=O [6,7-Dichloroquinoxaline-2,3-dione] + C=CCn1c(=O)c2cnc(Nc3ccc(N4CCN(C)CC4)cc3)nc2n1-c1cccc(C(C)(C)O)n1 [MK1775]	inactive: 1.79
CCCCC1(C2CCCC2)Cc2cc(OCC(=O)O)c(Cl)c(Cl)c2C1=O (stereo in doubt) [R(+)-Butylindazone] + C=CCn1c(=O)c2cnc(Nc3ccc(N4CCN(C)CC4)cc3)nc2n1-c1cccc(C(C)(C)O)n1 [MK1775]	inactive: -0.449
Cn1cncc1[C@@](N)(c1ccc(Cl)cc1)c1ccc2c(c1)c(-c1cccc(Cl)c1)cc(=O)n2C [Tipifarnib (Zarnestra)] + C=CCn1c(=O)c2cnc(Nc3ccc(N4CCN(C)CC4)cc3)nc2n1-c1cccc(C(C)(C)O)n1 [MK1775]	inactive: 0.0347
Cc1nnc(SCC2=C(C(=O)O)N3C(=O)[C@@H](NC(=O)Cn4cnnn4)[C@H]3SC2)s1 [Cefazolin sodium] + C=CCn1c(=O)c2cnc(Nc3ccc(N4CCN(C)CC4)cc3)nc2n1-c1cccc(C(C)(C)O)n1 [MK1775]	inactive: 1.33
CN1C2CCC1CC(NC(=O)c1nn(C)c3ccccc13)C2 (stereo unspecified) [LY-278,584 maleate] + C=CCn1c(=O)c2cnc(Nc3ccc(N4CCN(C)CC4)cc3)nc2n1-c1cccc(C(C)(C)O)n1 [MK1775]	inactive: -0.558
NCCCCN [Putrescine dihydrochloride] + C=CCn1c(=O)c2cnc(Nc3ccc(N4CCN(C)CC4)cc3)nc2n1-c1cccc(C(C)(C)O)n1 [MK1775]	inactive: -0.252
O=C(NCCCNc1nc(Nc2cccc(NC(=O)N3CCCC3)c2)ncc1I)c1cccs1 + C=CCn1c(=O)c2cnc(Nc3ccc(N4CCN(C)CC4)cc3)nc2n1-c1cccc(C(C)(C)O)n1 [MK1775]	inactive: -0.948
